Counter-ions that a name gives are not always drawn. Some of these results come from one statement about several compounds together.
These molecules were tested on IL-2 production (assay: Inhibition of IL-2 production in PHA-activated Jurkat cells (ELISA)). Details: PHA 2.5 μg/mL, 20 hours, IL-2 ELISA.
Format: cell-based
Protocol: Jurkat cells were placed in a 96 well plate (0.5 million cells per well in 1% FBS medium) then a test compound of this invention was added at different concentrations. After 10 minutes, the cells were activated with PHA (final concentration 2.5 μg/mL) and incubated for 20 hours at 37° C. under CO2. The final volume was 200 μL. Following incubation, the cells were centrifuged and the supernatants collected and stored at −70° C. prior to assaying for IL-2 production. A commercial ELISA kit (IL-2 Eli-pair, Diaclone Research, Besancon, France) was used to detect production of IL-2, from which dose response curves were obtained. The IC50 value was calculated as the concentration at which 50% of maximum IL-2 production after stimulation was inhibited versus a non-stimulation control.
Cc1ccc(-c2ncco2)cc1-c1ccc(NC(=O)C(N)CC(C)C)cc1 (stereo not drawn) [Compound 10, 2-Amino-4-methyl-pentanoic acid (2′-methyl-5′-oxazol-2-yl-biphenyl-4-yl)-amide] gave an IC50 of less than 1000 nM. Molecule O=C(Nc1ccc(-c2cc(C(F)(F)F)ccc2Cl)cc1)C1CC2C=CC1C2 (stereo not drawn) [Compound 131, N-(2′-chloro-5′-(trifluoromethyl)biphenyl-4-yl)bicyclo[2.2.1]hept-5-ene-2-carboxamide] has an IC50 greater than 1000 nM. O=C(Nc1ccc(-c2cc(C(F)(F)F)ccc2Cl)cc1)C1CC2C=CC1C2 (stereo not drawn) [Compound 132, N-(2′-chloro-5′-(trifluoromethyl)biphenyl-4-yl)bicyclo[2.2.1]hept-5-ene-2-carboxamide] showed an IC50 of less than 1000 nM. CC(=O)Nc1ccc(-c2cc(-c3ncco3)ccc2C)cc1 [Compound 1, N-(2′-Methyl-5′-oxazol-2-yl-biphenyl-4-yl)-acetamide] showed an IC50 of less than 1000 nM. In the case of Cc1ccc(-c2ncco2)cc1-c1ccc(NC(=O)[C@@H](N)C(C)C)cc1 (stereo in doubt) [Compound 123, 2-Amino-3-methyl-N-(2′-methyl-5′-oxazol-2-yl-biphenyl-4-yl)-butyramide], the IC50 is reported as less than 1000 nM.

Same assay, conditions: PHA 2.5 μg/mL, 20 hours, IL-2 ELISA, Hydrochloride
CCC(C(=O)Nc1ccc(-c2cc(-c3ncco3)ccc2C)cc1)N(C)C (stereo not drawn) [Compound 9, 2-Dimethylamino-N-(2′-methyl-5′-oxazol-2-yl-biphenyl-4-yl)-butyramide Hydrochloride] showed an IC50 of less than 1000 nM.
